Data: PubChem BioAssay AID188 (DTP/NCI, 2004)
Values are animals surviving of animals treated; these mice carried no tumour. Counts of survivors are from the toxicity check (mostly the fifth day) where no day follows; animals may have died later. Schedules are NCI's codes, taken here to give the interval after Q, in days (D) or hours (H), and the number of doses after X. Signs of the kind (2×) stand for listed records that agree. Some doses were run more than once; the values are given in rising order.

Tested on: CD2F1 mice, nontumored, toxicity/survival
Assay: NCI In Vivo Anticancer Drug Screen. Data for tumor model Nontumored Animals (Toxicity Test) in CD2F1 (CDF1) mice
[1] = dose: 4.0 mg/kg/injection, schedule: Q04DX003 (ip), vehicle: saline
[2] = dose: 8.0 mg/kg/injection, schedule: Q04DX003 (ip), vehicle: saline
[3] = dose: 10.0 mg/kg/injection, schedule: Q01DX001 (ip), vehicle: saline
[4] = dose: 15.0 mg/kg/injection, schedule: Q01DX001 (ip), vehicle: saline

In the case of N[C@@H](Cc1ccc(N(CCCl)CCCl)cc1)C(=O)O, the survivor count (dose: 0.5 mg/kg/injection, schedule: Q04DX003 (ip), vehicle: saline) is reported as 5 of 5, the survivor count (dose: 1.0 mg/kg/injection, schedule: Q04DX003 (ip), vehicle: saline) is reported as 5 of 5 and the survivor count (dose: 1.2 mg/kg/injection, schedule: Q04DX003 (ip), vehicle: saline) is reported as 5 of 5. The survivor count (dose: 1.7 mg/kg/injection, schedule: Q04DX003 (ip), vehicle: saline) was 8 of 8, the survivor count (dose: 1.8 mg/kg/injection, schedule: Q04DX003 (ip), vehicle: saline) was 5 of 5 and the survivor count (dose: 2.0 mg/kg/injection, schedule: Q04DX003 (ip), vehicle: saline) was 5 of 5. The survivor count (dose: 2.4 mg/kg/injection, schedule: Q04DX003 (ip), vehicle: saline) was 5 of 5, the survivor count (dose: 2.5 mg/kg/injection, schedule: Q04DX003 (ip), vehicle: saline) was 8 of 8 and the survivor count (dose: 2.7 mg/kg/injection, schedule: Q04DX003 (ip), vehicle: saline) was 5 of 5. The survivor count (dose: 3.6 mg/kg/injection, schedule: Q01DX005 (ip), vehicle: saline) was 10 of 10, the survivor count (dose: 3.6 mg/kg/injection, schedule: Q04DX003 (ip), vehicle: saline) was 5 of 5 and the survivor count (dose: 3.7 mg/kg/injection, schedule: Q04DX003 (ip), vehicle: saline) was 8 of 8. For the same compound, the survivor count [1] was 5 of 5, the survivor count (dose: 5.3 mg/kg/injection, schedule: Q04DX003 (ip), vehicle: saline) was 5 of 5 and the survivor count (dose: 5.4 mg/kg/injection, schedule: Q01DX005 (ip), vehicle: saline) was 10 of 10. The survivor count (dose: 5.6 mg/kg/injection, schedule: Q04DX003 (ip), vehicle: saline) was 8 of 8, the survivor count (dose: 6.0 mg/kg/injection, schedule: Q04DX003 (ip), vehicle: saline) was 5 of 5 and the survivor count (dose: 8.0 mg/kg/injection, schedule: Q01DX005 (ip), vehicle: saline) was 9 of 9. The survivor count [2] was 5 of 5, the survivor count (dose: 8.4 mg/kg/injection, schedule: Q04DX003 (ip), vehicle: saline) was 8 of 8 and the survivor count (dose: 10.0 mg/kg/injection, schedule: Q01DX001 (ip), vehicle: acid diluted with saline) was 10 of 10. The survivor count [3] was 9 of 10 and 10 of 10 (2×), the survivor count (dose: 12.0 mg/kg/injection, schedule: Q01DX005 (ip), vehicle: saline) was 10 of 10 and the survivor count (dose: 12.0 mg/kg/injection, schedule: Q04DX003 (ip), vehicle: saline) was 5 of 5. For the same compound, the survivor count (dose: 12.6 mg/kg/injection, schedule: Q04DX003 (ip), vehicle: saline) was 8 of 8, the survivor count (dose: 15.0 mg/kg/injection, schedule: Q01DX001 (ip), vehicle: acid diluted with saline) was 9 of 10 and the survivor count [4] was 10 of 10 (2×) and 8 of 8. The survivor count (dose: 18.9 mg/kg/injection, schedule: Q04DX003 (ip), vehicle: saline) was 8 of 8, the survivor count (dose: 20.0 mg/kg/injection, schedule: Q01DX001 (ip), vehicle: acid diluted with saline) was 9 of 9 and the survivor count (dose: 20.0 mg/kg/injection, schedule: Q01DX001 (ip), vehicle: saline) was 10 of 10 (2×). The survivor count (dose: 22.5 mg/kg/injection, schedule: Q01DX001 (ip), vehicle: saline) was 10 of 10.
For S=P(N1CC1)(N1CC1)N1CC1, the survivor count (dose: 0.5 mg/kg/injection, schedule: Q03HX024 (ip), vehicle: saline) was 8 of 8, the survivor count (dose: 1.0 mg/kg/injection, schedule: Q01DX005 (iv), vehicle: saline) was 8 of 8 and the survivor count (dose: 1.0 mg/kg/injection, schedule: Q01DX009 (ip), vehicle: saline) was 8 of 8. The survivor count (dose: 1.0 mg/kg/injection, schedule: Q01DX009 (sc), vehicle: saline) was 8 of 8, the survivor count (dose: 1.0 mg/kg/injection, schedule: Q03HX008 (ip), vehicle: saline) was 8 of 8 and the survivor count (dose: 1.0 mg/kg/injection, schedule: Q03HX016 (ip), vehicle: saline) was 8 of 8. For the same compound, the survivor count (dose: 1.0 mg/kg/injection, schedule: Q03HX024 (ip), vehicle: saline) was 8 of 8, the survivor count (dose: 2.0 mg/kg/injection, schedule: Q01DX005 (iv), vehicle: saline) was 8 of 8 and the survivor count (dose: 2.0 mg/kg/injection, schedule: Q01DX009 (ip), vehicle: saline) was 8 of 8. For the same compound, the survivor count (dose: 2.0 mg/kg/injection, schedule: Q01DX009 (sc), vehicle: saline) was 8 of 8, the survivor count (dose: 2.0 mg/kg/injection, schedule: Q03HX008 (ip), vehicle: saline) was 8 of 8 and the survivor count (dose: 2.0 mg/kg/injection, schedule: Q03HX016 (ip), vehicle: saline) was 8 of 8. The survivor count (dose: 2.0 mg/kg/injection, schedule: Q03HX024 (ip), vehicle: saline) was 8 of 8, the survivor count (dose: 4.0 mg/kg/injection, schedule: Q01DX001 (iv), vehicle: saline) was 8 of 8 and the survivor count (dose: 4.0 mg/kg/injection, schedule: Q01DX001 (sc), vehicle: saline) was 8 of 8. The survivor count (dose: 4.0 mg/kg/injection, schedule: Q01DX005 (iv), vehicle: saline) was 8 of 8, the survivor count (dose: 4.0 mg/kg/injection, schedule: Q01DX009 (ip), vehicle: saline) was 8 of 8 and the survivor count (dose: 4.0 mg/kg/injection, schedule: Q01DX009 (oral), vehicle: saline) was 8 of 8. The survivor count (dose: 4.0 mg/kg/injection, schedule: Q01DX009 (sc), vehicle: saline) was 8 of 8, the survivor count (dose: 4.0 mg/kg/injection, schedule: Q03HX008 (ip), vehicle: saline) was 8 of 8 and the survivor count (dose: 4.0 mg/kg/injection, schedule: Q03HX016 (ip), vehicle: saline) was 8 of 8. For the same compound, the survivor count (dose: 4.0 mg/kg/injection, schedule: Q03HX024 (ip), vehicle: saline) was 8 of 8, the survivor count [1] was 8 of 8 and the survivor count (dose: 8.0 mg/kg/injection, schedule: Q01DX001 (ip), vehicle: saline) was 8 of 8. For the same compound, the survivor count (dose: 8.0 mg/kg/injection, schedule: Q01DX001 (iv), vehicle: saline) was 8 of 8, the survivor count (dose: 8.0 mg/kg/injection, schedule: Q01DX001 (sc), vehicle: saline) was 8 of 8 and the survivor count (dose: 8.0 mg/kg/injection, schedule: Q01DX005 (iv), vehicle: saline) was 8 of 8. For the same compound, the survivor count (dose: 8.0 mg/kg/injection, schedule: Q01DX009 (ip), vehicle: saline) was 8 of 8, the survivor count (dose: 8.0 mg/kg/injection, schedule: Q01DX009 (oral), vehicle: saline) was 8 of 8 and the survivor count (dose: 8.0 mg/kg/injection, schedule: Q01DX009 (sc), vehicle: saline) was 8 of 8. For the same compound, the survivor count (dose: 8.0 mg/kg/injection, schedule: Q03HX008 (ip), vehicle: saline) was 6 of 8, the survivor count (dose: 8.0 mg/kg/injection, schedule: Q03HX016 (ip), vehicle: saline) was 8 of 8 and the survivor count (dose: 8.0 mg/kg/injection, schedule: Q03HX024 (ip), vehicle: saline) was 6 of 8. For the same compound, the survivor count [2] was 8 of 8, the survivor count (dose: 8.0 mg/kg/injection, schedule: Q08DX002 (ip), vehicle: saline) was 8 of 8 and the survivor count [3] was 10 of 10. The survivor count (dose: 11.0 mg/kg/injection, schedule: Q01DX001 (ip), vehicle: saline) was 10 of 10, the survivor count [4] was 10 of 10 and the survivor count (dose: 16.0 mg/kg/injection, schedule: Q01DX001 (ip), vehicle: saline) was 8 of 8. The survivor count (dose: 16.0 mg/kg/injection, schedule: Q01DX001 (iv), vehicle: saline) was 8 of 8, the survivor count (dose: 16.0 mg/kg/injection, schedule: Q01DX001 (oral), vehicle: saline) was 8 of 8 and the survivor count (dose: 16.0 mg/kg/injection, schedule: Q01DX001 (sc), vehicle: saline) was 8 of 8. The survivor count (dose: 16.0 mg/kg/injection, schedule: Q01DX005 (iv), vehicle: saline) was 8 of 8, the survivor count (dose: 16.0 mg/kg/injection, schedule: Q01DX009 (ip), vehicle: saline) was 8 of 8 and the survivor count (dose: 16.0 mg/kg/injection, schedule: Q01DX009 (oral), vehicle: saline) was 8 of 8. For the same compound, the survivor count (dose: 16.0 mg/kg/injection, schedule: Q01DX009 (sc), vehicle: saline) was 8 of 8, the survivor count (dose: 16.0 mg/kg/injection, schedule: Q04DX003 (ip), vehicle: saline) was 8 of 8 and the survivor count (dose: 16.0 mg/kg/injection, schedule: Q08DX002 (ip), vehicle: saline) was 8 of 8. For the same compound, the survivor count (dose: 17.0 mg/kg/injection, schedule: Q01DX001 (ip), vehicle: saline) was 10 of 10, the survivor count (dose: 25.0 mg/kg/injection, schedule: Q01DX001 (ip), vehicle: saline) was 9 of 10 and the survivor count (dose: 32.0 mg/kg/injection, schedule: Q01DX001 (ip), vehicle: saline) was 7 of 8. For the same compound, the survivor count (dose: 32.0 mg/kg/injection, schedule: Q01DX001 (iv), vehicle: saline) was 3 of 8, the survivor count (dose: 32.0 mg/kg/injection, schedule: Q01DX001 (oral), vehicle: saline) was 8 of 8 and the survivor count (dose: 32.0 mg/kg/injection, schedule: Q01DX001 (sc), vehicle: saline) was 4 of 8. The survivor count (dose: 32.0 mg/kg/injection, schedule: Q01DX009 (oral), vehicle: saline) was 6 of 8, the survivor count (dose: 32.0 mg/kg/injection, schedule: Q04DX003 (ip), vehicle: saline) was 4 of 8 and the survivor count (dose: 32.0 mg/kg/injection, schedule: Q08DX002 (ip), vehicle: saline) was 6 of 8. The survivor count (dose: 64.0 mg/kg/injection, schedule: Q01DX001 (ip), vehicle: saline) was 6 of 8, the survivor count (dose: 64.0 mg/kg/injection, schedule: Q01DX001 (iv), vehicle: saline) was 5 of 8 and the survivor count (dose: 64.0 mg/kg/injection, schedule: Q01DX001 (oral), vehicle: saline) was 5 of 8. For the same compound, the survivor count (dose: 64.0 mg/kg/injection, schedule: Q01DX001 (sc), vehicle: saline) was 5 of 8, the survivor count (dose: 64.0 mg/kg/injection, schedule: Q01DX009 (oral), vehicle: saline) was 7 of 8 and the survivor count (dose: 64.0 mg/kg/injection, schedule: Q04DX003 (ip), vehicle: saline) was 6 of 8. For the same compound, the survivor count (dose: 64.0 mg/kg/injection, schedule: Q08DX002 (ip), vehicle: saline) was 5 of 8, the survivor count (dose: 128.0 mg/kg/injection, schedule: Q01DX001 (oral), vehicle: saline) was 2 of 8 and the survivor count (dose: 256.0 mg/kg/injection, schedule: Q01DX001 (oral), vehicle: saline) was 3 of 8.
